Experimental data taken from the supplement of paper PMC5836539.
± gives the standard deviation of the averaged measurements. Most values lie within the scatter of the assay; repeated measurements hardly agree.

Protein sequences, listed by entry. Tags and fused reporters are not part of them. Lines headed by an entry give the natural chain unless they say otherwise; changes in a name come on top.
UniProt Q9Y5X2: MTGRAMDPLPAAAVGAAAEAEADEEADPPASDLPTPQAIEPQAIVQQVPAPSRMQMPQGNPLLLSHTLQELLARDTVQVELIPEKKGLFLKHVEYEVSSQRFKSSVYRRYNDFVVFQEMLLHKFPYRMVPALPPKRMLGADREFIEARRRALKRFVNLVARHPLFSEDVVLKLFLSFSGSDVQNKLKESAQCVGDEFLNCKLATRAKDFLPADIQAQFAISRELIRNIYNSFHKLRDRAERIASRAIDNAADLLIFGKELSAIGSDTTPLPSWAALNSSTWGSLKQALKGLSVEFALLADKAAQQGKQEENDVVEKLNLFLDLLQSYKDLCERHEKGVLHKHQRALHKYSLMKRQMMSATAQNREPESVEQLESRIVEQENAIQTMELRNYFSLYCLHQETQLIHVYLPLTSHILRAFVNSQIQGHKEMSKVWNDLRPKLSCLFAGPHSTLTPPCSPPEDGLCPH
UniProt Q7Z3T8: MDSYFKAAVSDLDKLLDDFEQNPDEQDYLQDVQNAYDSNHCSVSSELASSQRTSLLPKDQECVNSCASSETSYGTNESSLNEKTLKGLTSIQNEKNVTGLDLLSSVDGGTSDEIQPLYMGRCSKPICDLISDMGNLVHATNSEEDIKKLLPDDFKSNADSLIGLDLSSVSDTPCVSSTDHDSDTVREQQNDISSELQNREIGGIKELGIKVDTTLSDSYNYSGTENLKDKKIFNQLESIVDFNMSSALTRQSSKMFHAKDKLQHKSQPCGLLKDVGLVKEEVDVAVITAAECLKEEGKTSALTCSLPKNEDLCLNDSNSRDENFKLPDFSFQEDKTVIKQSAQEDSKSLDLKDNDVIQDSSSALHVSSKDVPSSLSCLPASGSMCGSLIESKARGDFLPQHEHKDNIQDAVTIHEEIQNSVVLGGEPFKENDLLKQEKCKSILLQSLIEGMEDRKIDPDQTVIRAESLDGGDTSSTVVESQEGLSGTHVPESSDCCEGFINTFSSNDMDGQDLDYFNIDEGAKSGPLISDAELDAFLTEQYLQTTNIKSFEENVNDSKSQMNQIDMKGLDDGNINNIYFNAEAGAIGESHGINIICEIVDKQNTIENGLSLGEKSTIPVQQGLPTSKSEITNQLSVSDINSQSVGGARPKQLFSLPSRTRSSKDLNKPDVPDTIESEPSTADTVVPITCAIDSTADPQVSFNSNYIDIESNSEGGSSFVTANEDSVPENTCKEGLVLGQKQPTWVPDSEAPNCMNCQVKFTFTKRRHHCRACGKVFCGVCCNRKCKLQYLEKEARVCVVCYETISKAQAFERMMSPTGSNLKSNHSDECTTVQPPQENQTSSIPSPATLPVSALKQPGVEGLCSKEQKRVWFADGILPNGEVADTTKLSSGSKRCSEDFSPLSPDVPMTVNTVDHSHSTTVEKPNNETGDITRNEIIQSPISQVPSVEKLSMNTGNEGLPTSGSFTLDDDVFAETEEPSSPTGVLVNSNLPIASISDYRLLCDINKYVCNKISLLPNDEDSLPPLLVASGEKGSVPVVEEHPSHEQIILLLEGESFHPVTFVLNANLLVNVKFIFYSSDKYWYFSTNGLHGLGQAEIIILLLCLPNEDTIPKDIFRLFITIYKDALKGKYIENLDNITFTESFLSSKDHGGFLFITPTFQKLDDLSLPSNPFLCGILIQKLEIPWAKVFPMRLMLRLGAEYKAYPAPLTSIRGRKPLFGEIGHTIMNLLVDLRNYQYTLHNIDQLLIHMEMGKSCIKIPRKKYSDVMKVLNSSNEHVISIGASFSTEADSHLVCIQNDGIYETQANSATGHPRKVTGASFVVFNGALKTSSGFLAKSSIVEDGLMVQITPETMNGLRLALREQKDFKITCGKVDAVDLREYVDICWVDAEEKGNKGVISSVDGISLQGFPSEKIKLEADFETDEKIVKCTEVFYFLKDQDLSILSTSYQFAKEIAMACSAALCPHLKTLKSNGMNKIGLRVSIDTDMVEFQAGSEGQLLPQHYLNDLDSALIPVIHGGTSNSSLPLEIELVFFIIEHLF
UniProt Q9Y3F4: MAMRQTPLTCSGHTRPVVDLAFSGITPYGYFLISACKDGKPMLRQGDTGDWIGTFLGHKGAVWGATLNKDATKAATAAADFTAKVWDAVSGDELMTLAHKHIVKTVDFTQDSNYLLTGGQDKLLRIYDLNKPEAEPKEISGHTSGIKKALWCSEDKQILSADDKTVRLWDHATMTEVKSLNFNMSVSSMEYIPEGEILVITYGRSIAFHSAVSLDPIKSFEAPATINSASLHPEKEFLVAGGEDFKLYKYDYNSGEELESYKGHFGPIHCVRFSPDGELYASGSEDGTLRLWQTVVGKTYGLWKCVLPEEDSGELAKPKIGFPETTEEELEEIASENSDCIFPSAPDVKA
UniProt Q99733: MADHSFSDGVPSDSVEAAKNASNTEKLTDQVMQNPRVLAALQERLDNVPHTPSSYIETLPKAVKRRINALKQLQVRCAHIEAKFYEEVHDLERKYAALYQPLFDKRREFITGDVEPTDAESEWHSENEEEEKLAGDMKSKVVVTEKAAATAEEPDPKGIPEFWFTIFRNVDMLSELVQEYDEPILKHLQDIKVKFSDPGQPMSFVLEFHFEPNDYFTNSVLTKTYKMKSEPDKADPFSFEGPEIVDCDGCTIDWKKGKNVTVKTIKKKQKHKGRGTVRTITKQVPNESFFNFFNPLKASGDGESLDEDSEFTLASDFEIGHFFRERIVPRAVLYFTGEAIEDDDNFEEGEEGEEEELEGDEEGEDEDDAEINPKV
UniProt Q8IYB3: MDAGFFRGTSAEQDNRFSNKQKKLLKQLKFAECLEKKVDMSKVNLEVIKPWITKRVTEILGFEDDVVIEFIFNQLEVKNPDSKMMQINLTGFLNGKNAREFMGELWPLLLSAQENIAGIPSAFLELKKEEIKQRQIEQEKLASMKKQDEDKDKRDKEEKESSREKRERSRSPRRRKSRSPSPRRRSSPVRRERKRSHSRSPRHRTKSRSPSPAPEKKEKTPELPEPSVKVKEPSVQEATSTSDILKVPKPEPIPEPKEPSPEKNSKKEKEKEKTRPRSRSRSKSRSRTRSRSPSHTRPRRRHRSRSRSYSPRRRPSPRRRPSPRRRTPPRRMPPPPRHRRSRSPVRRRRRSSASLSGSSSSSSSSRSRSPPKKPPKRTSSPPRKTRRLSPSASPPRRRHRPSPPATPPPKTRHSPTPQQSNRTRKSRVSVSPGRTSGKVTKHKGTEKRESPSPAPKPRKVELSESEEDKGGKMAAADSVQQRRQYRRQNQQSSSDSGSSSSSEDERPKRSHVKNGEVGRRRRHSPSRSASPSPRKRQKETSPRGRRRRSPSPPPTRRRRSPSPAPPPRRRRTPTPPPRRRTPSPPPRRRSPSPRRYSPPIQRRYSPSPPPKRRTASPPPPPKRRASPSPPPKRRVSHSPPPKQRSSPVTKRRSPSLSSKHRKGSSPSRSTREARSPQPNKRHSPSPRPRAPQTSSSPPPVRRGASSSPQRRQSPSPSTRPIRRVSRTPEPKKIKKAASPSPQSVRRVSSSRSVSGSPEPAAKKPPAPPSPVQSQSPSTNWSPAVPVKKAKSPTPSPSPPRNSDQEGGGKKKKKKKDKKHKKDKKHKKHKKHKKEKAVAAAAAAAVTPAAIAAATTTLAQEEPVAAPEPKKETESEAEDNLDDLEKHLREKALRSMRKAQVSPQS
UniProt Q9NYF3: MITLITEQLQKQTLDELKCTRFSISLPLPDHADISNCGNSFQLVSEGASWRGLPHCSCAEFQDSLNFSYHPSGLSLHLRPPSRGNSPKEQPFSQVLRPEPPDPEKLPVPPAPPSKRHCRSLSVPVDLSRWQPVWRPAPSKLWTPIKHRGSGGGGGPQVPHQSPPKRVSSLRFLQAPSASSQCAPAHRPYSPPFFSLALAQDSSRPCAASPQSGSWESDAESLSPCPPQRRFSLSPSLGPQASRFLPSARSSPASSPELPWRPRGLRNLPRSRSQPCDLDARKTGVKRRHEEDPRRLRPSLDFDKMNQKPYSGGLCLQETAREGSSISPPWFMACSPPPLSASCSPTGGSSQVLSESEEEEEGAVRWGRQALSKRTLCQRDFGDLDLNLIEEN
UniProt Q9H8W4: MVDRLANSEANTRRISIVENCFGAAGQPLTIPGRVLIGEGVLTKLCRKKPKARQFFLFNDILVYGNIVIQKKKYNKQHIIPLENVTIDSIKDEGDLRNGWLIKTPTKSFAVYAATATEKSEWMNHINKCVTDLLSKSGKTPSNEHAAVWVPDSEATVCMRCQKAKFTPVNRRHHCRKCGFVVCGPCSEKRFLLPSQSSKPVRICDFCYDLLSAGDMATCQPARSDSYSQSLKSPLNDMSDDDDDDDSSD
UniProt P13051, whole entry, looked up: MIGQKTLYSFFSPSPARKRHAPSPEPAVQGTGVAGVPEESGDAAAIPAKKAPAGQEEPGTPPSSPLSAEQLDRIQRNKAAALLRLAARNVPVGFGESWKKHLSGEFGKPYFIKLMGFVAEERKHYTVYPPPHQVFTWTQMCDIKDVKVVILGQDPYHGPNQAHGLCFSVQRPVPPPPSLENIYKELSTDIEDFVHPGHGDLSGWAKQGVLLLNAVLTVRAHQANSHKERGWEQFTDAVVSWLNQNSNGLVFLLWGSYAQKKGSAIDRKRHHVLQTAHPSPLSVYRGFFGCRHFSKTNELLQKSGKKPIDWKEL
UniProt Q13427: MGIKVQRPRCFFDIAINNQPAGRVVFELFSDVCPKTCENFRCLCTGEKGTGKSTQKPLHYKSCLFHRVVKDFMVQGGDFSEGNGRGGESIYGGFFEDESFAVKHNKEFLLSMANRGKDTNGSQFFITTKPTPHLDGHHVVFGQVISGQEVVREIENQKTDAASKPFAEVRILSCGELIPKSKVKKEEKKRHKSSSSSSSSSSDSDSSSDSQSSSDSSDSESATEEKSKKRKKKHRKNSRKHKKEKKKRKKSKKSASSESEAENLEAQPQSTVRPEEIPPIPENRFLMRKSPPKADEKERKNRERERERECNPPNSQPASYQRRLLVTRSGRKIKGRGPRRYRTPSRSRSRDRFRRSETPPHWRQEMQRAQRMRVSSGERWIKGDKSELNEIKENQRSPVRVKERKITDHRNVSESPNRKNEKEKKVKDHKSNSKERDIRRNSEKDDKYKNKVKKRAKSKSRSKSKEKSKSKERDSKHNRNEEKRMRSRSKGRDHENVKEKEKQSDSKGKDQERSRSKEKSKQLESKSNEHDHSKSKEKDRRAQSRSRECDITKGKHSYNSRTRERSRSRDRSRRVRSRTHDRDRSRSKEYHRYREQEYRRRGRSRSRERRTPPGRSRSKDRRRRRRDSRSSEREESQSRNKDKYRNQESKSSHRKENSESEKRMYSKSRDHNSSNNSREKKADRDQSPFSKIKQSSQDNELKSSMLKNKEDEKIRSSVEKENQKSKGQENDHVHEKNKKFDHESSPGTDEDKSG
UniProt Q96B97, whole entry, looked up: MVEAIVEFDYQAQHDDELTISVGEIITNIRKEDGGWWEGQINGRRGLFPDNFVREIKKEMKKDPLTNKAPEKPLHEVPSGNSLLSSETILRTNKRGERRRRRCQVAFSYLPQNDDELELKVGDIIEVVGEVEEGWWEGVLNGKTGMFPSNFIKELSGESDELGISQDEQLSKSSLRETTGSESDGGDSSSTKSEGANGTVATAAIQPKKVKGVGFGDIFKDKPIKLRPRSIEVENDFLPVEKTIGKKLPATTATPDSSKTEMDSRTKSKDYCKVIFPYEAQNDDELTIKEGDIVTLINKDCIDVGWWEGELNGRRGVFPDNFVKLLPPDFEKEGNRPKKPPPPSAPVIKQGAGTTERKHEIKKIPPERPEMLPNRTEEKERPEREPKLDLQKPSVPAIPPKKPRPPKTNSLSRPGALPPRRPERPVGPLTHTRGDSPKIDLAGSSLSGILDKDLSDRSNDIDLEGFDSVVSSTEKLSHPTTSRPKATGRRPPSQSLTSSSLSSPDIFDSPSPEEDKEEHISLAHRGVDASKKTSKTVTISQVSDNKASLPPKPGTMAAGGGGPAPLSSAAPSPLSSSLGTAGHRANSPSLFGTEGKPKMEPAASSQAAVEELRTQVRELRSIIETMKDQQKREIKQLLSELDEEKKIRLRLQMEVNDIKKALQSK
UniProt P40425: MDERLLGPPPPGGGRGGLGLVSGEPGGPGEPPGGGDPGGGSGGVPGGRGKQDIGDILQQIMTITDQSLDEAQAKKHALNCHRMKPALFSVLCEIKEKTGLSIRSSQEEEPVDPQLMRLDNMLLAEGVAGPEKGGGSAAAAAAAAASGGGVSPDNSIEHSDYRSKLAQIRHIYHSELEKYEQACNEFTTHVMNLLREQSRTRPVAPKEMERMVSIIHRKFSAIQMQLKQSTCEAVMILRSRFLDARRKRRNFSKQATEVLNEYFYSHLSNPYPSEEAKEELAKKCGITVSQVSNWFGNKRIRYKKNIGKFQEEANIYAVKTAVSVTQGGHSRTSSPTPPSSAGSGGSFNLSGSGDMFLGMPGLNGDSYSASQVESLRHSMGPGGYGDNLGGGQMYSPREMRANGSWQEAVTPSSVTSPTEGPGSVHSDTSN

The targets below were run with CC[C@@H](C)Nc1cc(C(=O)N[C@H]2C[C@H]3CC[C@@H](C2)N3c2ccc(C(=O)C3CC3)cn2)c(C)cc1C(N)=O [XL888] (assay: phosphopeptide melting temperature shift (XL888 minus DMSO); higher = stabilised by drug treatment). Settings: 100 µM; treatment time 2 h; layout: intact cells; SK-Mel 28.
Description: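 Phospho-TPP in intact SK-Mel 28 cells treated with 100 uM XL888 or DMSO for 2 h, heated at 10 temperatures (37-67 C) for 3 min, soluble fraction TMT10plex-labelled and TiO2 phospho-enriched. Melting curves were fitted per phosphopeptide; the value is the melting point difference (drug minus vehicle) in each of two biological replicates.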

| Target | phosphopeptide melting temperature shift [°C] |
| --- | --- |
| SNX8 phosphosite_456 (phosphosite position: 456) (UniProt Q9Y5X2) | 2.88 |
| SASH1 phosphosite_699 (phosphosite position: 699) (UniProt O94885) | -1.45 |
| RAD21 phosphosite_545 (phosphosite position: 545) (UniProt O60216) | -1.95 |
| UniProt Q9BZQ8_phosphosite_602 (phosphosite position: 602) | -0.955 ± 0.31 |
| UniProt Q13469-3_phosphosite_227 (phosphosite position: 227) | 0.861 |
| UniProt Q8NDI1-3_phosphosite_401 (phosphosite position: 401) | -0.126 ± 0.021 |
| UniProt P78316-2_phosphosite_146 (phosphosite position: 146) | 4.96 |
| CEP170 phosphosite_1019 (phosphosite position: 1019) (UniProt Q5SW79) | -3.6 |
| UniProt Q76FK4-2_phosphosite_297 (phosphosite position: 297) | -0.474 |
| PCTK3 phosphosite_87 (phosphosite position: 87) (UniProt Q07002) | 0.411 |
| UniProt P49418-2_phosphosite_268 (phosphosite position: 268) | -0.312 |
| ZFYVE16 phosphosite_142 (phosphosite position: 142) (UniProt Q7Z3T8) | 0.512 |
| KRI1 phosphosite_639 (phosphosite position: 639) (UniProt Q8N9T8) | 0.598 ± 0.2 |
| STRAP phosphosite_338 (phosphosite position: 338) (UniProt Q9Y3F4) | 0.646 ± 0.2 |
| NAP1L4 phosphosite_51 (phosphosite position: 51) (UniProt Q99733) | 1.21 ± 0.84 |
| UniProt Q9UPN9-2_phosphosite_1088 (phosphosite position: 1088) | -1.03 ± 1.2 |
| MLLT1 phosphosite_475 (phosphosite position: 475) (UniProt Q03111) | 0.778 ± 3.2 |
| UniProt Q6NYC8_phosphosite_432 (phosphosite position: 432) | -0.653 ± 0.41 |
| SRRM1 phosphosite_549 (phosphosite position: 549) (UniProt Q8IYB3) | -0.06 ± 2.7 |
| FAM53C phosphosite_232 (phosphosite position: 232) (UniProt Q9NYF3) | -0.773 ± 1.5 |
| SUDS3 phosphosite_234 (phosphosite position: 234) (UniProt Q9H7L9) | 1.8 ± 1.4 |
| MDN1 phosphosite_4538 (phosphosite position: 4538) (UniProt Q9NU22) | -1.14 ± 0.36 |
| MED1 phosphosite_771 (phosphosite position: 771) (UniProt Q15648) | 1.31 ± 0.66 |
| UniProt Q9Y520-6_phosphosite_924 (phosphosite position: 924) | 1.52 ± 0.018 |
| CTR9 phosphosite_970 (phosphosite position: 970) (UniProt Q6PD62) | 0.94 |

| Target | phosphopeptide melting temperature shift [°C] |
| --- | --- |
| SPAG9 phosphosite_183 (phosphosite position: 183) (UniProt O60271) | 0.317 ± 0.5 |
| ZC3H8 phosphosite_59 (phosphosite position: 59) (UniProt Q8N5P1) | 0.738 |
| GPKOW phosphosite_42 (phosphosite position: 42) (UniProt Q92917) | 1.76 |
| UniProt Q9Y2J0-2_phosphosite_688 (phosphosite position: 688) | 2.34 ± 3.5 |
| PLEKHF2 phosphosite_226 (phosphosite position: 226) (UniProt Q9H8W4) | 0.451 ± 0.0062 |
| UniProt Q7Z6E9-2_phosphosite_950 (phosphosite position: 950) | 0.273 |
| UniProt P41227-2_phosphosite_167 (phosphosite position: 167) | 0.734 ± 0.88 |
| UniProt O60296_phosphosite_784 (phosphosite position: 784) | 1.58 |
| UNG phosphosite_60 (phosphosite position: 60) (UniProt P13051) | 1.95 ± 0.27 |
| MICALL1 phosphosite_486 (phosphosite position: 486) (UniProt Q8N3F8) | -2.36 |
| PPIG phosphosite_748 (phosphosite position: 748) (UniProt Q13427) | 0.124 ± 1.3 |
| UniProt P25440-4_phosphosite_513 (phosphosite position: 513) | 0.562 ± 1.1 |
| UniProt Q9H4G0-3_phosphosite_541 (phosphosite position: 541) | 2.89 |
| SPTBN1 phosphosite_2169 (phosphosite position: 2169) (UniProt Q01082) | 0.2 ± 1.3 |
| UniProt P52948-6_phosphosite_670 (phosphosite position: 670) | 3.65 |
| UniProt Q6PD74-2_phosphosite_201 (phosphosite position: 201) | 0.435 ± 2.5 |
| UniProt Q5JSH3-2_phosphosite_162 (phosphosite position: 162) | 0.811 ± 1.1 |
| UniProt O60573-2_phosphosite_13 (phosphosite position: 13) | 1.16 ± 0.81 |
| CTR9 phosphosite_1085 (phosphosite position: 1085) (UniProt Q6PD62) | 0.0813 |
| MATR3 phosphosite_596 (phosphosite position: 596) (UniProt P43243) | 0.147 |
| RANBP2 phosphosite_2008 (phosphosite position: 2008) (UniProt P49792) | -1.23 |
| UniProt Q96F24-3_phosphosite_103 (phosphosite position: 103) | 6.57 |
| UniProt Q96B97-2_phosphosite_472 (phosphosite position: 472) | -0.0312 ± 2 |
| UniProt Q08AD1-2_phosphosite_437 (phosphosite position: 437) | -0.737 ± 0.44 |
| PBX2 phosphosite_330 (phosphosite position: 330) (UniProt P40425) | -0.91 |

Exported comma-delimited: part of the list above.
Target,phosphopeptide melting temperature shift [°C]
UniProt P52948-6_phosphosite_670 (phosphosite position: 670),3.65
UniProt Q6PD74-2_phosphosite_201 (phosphosite position: 201),0.435 ± 2.5
UniProt Q5JSH3-2_phosphosite_162 (phosphosite position: 162),0.811 ± 1.1
